The source of these data is PubChem BioAssay AID284 (DTP/NCI, 2004).

In the test the test system is BDF1 mice, L1210/MTX-resistant leukemia ip, survival T/C. In words: NCI In Vivo Anticancer Drug Screen. Data for tumor model L1210 Leukemia resistant to Methotrexate; NSC 740 (intraperitoneal) in B6D2F1 (BDF1) mice. As to conditions: T/C endpoint: mean survival time, higher T/C = longer survival. The procedure:
The antitumor activity of compounds was measured in mice bearing transplantable tumors. Survival or tumor size were measured and the results are expressed as the measurement made in the treated group (T) divided by the measurement made in the vehicle treated control group (C). The tumor model used in this assay is L1210 Leukemia resistant to Methotrexate; NSC 740 (intraperitoneal) in B6D2F1 (BDF1) mice

SMILES strings stand for the structures. The list is a part of this screen's results and no random one: its compounds were picked by chemical class. Not every dose and run of a compound is shown. T/C gives the treated animals as a percentage of the vehicle group. Some doses have a count of surviving animals in place of a T/C: the source holds a T/C of zero for them, seemingly a mark for toxic or unscored doses. Some doses without a T/C left all or most animals alive at the check, yet need not have been tolerated: survival well below the control is almost never listed, so the zero probably covers shortened survival too. Counts of survivors are from the toxicity check (mostly the fifth day) where no day follows; animals may have died later. Schedule codes are those of the source, read here as Q, the interval in days (D) or hours (H), X, the number of doses. Some schedules carry Z or #; the key to these is not given. Some doses were run more than once; their values stand side by side, smallest first. Where survival is the endpoint, this PubChem deposit counts one and a half times the control or more as active, and values a quarter to a half above the control carry no call in these data; other NCI protocols may use other cut-offs.

Turning to `CN(N=O)C(=N)N[N+](=O)[O-]`, the T/C runs as follows: (dose: 8.0 mg/kg/injection, schedule: Q01DX010 (ip), vehicle: saline) 105 and 120 % of control; (dose: 16.0 mg/kg/injection, schedule: Q01DX010 (ip), vehicle: saline) 99 and 134 % of control. Besides, the survivor count is 6 of 6 (dose: 32.0 mg/kg/injection, schedule: Q01DX010 (ip), vehicle: saline); 2 of 6 and 5 of 6 (dose: 64.0 mg/kg/injection, schedule: Q01DX010 (ip), vehicle: saline).

For `Cc1[nH]c(=O)[nH]c(=O)c1N(CCCl)CCCl`, the T/C was 115 % of control (dose: 0.5 mg/kg/injection, schedule: Q01DX010 (ip), vehicle: saline); 110 % of control (dose: 0.5 mg/kg/injection, schedule: Q01DX Z (ip), vehicle: carboxymethylcellulose (CMC)); 125 % of control (dose: 1.0 mg/kg/injection, schedule: Q01DX010 (ip), vehicle: saline); 92 % of control (dose: 1.0 mg/kg/injection, schedule: Q01DX Z (ip), vehicle: carboxymethylcellulose (CMC)); 117 % of control (dose: 2.0 mg/kg/injection, schedule: Q01DX010 (ip), vehicle: saline); 89 % of control (dose: 2.0 mg/kg/injection, schedule: Q01DX Z (ip), vehicle: carboxymethylcellulose (CMC)). Further, under “dose: 4.0 mg/kg/injection, schedule: Q01DX010 (ip), vehicle: saline”, the T/C is 98 % of control. The survivor count (dose: 4.0 mg/kg/injection, schedule: Q01DX Z (ip), vehicle: carboxymethylcellulose (CMC)) is listed as 5 of 6.
